Laboratory results: article PMC10547168, “Cell cycle-dependent organization of a bacterial centromere through multi-layered regulation of the ParABS system” (PLOS Genetics, 2023)
No constants are given. Whether binding was seen depends on the method and setting. A result given as binding can be weak or reduced; the word gives no strength. Sequences can lack the tags named with a protein.

Molecular target: T1, ParBBb-msfGFP-H3H4 (bait of the POLAR assay) (Bdellovibrio bacteriovorus) (UniProt Q6MGM0)
T1 sequence: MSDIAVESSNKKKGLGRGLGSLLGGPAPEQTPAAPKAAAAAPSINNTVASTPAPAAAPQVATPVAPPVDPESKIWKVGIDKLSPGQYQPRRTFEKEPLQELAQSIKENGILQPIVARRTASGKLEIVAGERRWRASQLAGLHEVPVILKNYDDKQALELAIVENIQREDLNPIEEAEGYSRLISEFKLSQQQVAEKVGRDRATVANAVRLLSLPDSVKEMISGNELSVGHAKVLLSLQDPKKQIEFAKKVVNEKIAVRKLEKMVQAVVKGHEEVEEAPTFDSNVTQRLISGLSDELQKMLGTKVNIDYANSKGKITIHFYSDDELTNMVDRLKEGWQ
Test: PopZ-linked apical recruitment (POLAR) assay; E. coli TB28; bait fused to msfGFP-H3H4 and drawn to PopZCc clusters, prey fused to mScarlet; 100 μM IPTG (prey) with or without 0.2% arabinose (PopZCc and bait), 2 h at 37°C; fluorescence snapshots

## ParABb-mScarlet (prey of the POLAR assay) (Bdellovibrio bacteriovorus)
  binding: binds
